{
  "source": "paper PMC5996148",
  "assay_in_all_cases": "protein microarray (ProtoArray v5.0), streptavidin-Alexa Fluor 647",
  "conditions_in_all_cases": "3'-biotin; 20 mM Tris (pH 7.5), 5 mM MgCl2, 100 mM KCl, 0.1% Tween-20, A/T-rich and random oligonucleotide blockers; temperature not stated; high values mean tight binding",
  "key": {"RAB4A (human)": {"system": "RAB4A (human)"}, "RAB7B (human)": {"system": "RAB7B (human)"}, "RAB9A": {"molecular_target": "T1, RAB9A (UniProt P51151)", "T1 sequence": "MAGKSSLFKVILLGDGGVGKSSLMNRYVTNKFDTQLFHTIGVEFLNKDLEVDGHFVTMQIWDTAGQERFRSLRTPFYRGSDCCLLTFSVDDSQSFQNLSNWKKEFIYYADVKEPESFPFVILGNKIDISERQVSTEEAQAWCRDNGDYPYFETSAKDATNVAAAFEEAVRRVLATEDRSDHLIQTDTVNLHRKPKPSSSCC"}, "RABEP2 (human)": {"system": "RABEP2 (human)"}, "RABEPK (human)": {"system": "RABEPK (human)"}, "RABL2B (human)": {"system": "RABL2B (human)"}, "RABL4 (human)": {"system": "RABL4 (human)"}, "RABL5 (human)": {"system": "RABL5 (human)"}, "RAD54B (human)": {"system": "RAD54B (human)"}, "RAG1AP1 (human)": {"system": "RAG1AP1 (human)"}},
  "note": "Where “and” joins values, the source holds several entries; their conditions need not be identical. Equal entries are not always repeated. The list shows a part of the results. For some of these results: The source does not settle which construct or isoform was used.",
  "data": [
    {"sequence": "GGGAGGCTGAGGCAGG [G4-1 biotinylated (PQS2)]", "values": [
      {"measurement": "binding signal", "setting": "RAB4A (human)", "value": -0.339, "unit": "z-score"},
      {"measurement": "binding signal", "setting": "RAB7B (human)", "value": "-0.324 z-score and -0.306 z-score"},
      {"measurement": "binding signal", "setting": "RAB9A", "value": -0.35, "unit": "z-score"},
      {"measurement": "binding signal", "setting": "RABEP2 (human)", "value": -0.331, "unit": "z-score"},
      {"measurement": "binding signal", "setting": "RABEPK (human)", "value": -0.289, "unit": "z-score"},
      {"measurement": "binding signal", "setting": "RABL2B (human)", "value": "-0.266 z-score and -0.328 z-score"},
      {"measurement": "binding signal", "setting": "RABL4 (human)", "value": -0.305, "unit": "z-score"},
      {"measurement": "binding signal", "setting": "RABL5 (human)", "value": "-0.335 z-score and -0.35 z-score"},
      {"measurement": "binding signal", "setting": "RAD54B (human)", "value": -0.326, "unit": "z-score"},
      {"measurement": "binding signal", "setting": "RAG1AP1 (human)", "value": -0.302, "unit": "z-score"}
    ]}
  ]
}
